# The list shows a part of the results.
# Target: T1, OsSMF1 (Oryza sativa, UniProt Q6ZLB0 1-436)
# T1 sequence: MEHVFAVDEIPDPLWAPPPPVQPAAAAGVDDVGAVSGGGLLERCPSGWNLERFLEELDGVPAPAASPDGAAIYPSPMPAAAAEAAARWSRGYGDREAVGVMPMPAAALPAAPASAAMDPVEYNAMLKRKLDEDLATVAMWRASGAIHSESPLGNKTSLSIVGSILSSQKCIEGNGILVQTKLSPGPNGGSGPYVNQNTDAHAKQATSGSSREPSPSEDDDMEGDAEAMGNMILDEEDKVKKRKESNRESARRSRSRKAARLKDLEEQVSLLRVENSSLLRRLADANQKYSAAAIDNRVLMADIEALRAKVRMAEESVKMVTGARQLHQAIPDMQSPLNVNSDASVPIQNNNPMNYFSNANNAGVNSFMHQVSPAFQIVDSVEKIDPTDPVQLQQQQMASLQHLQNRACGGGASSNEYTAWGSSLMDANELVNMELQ
# Assay: protein-binding microarray (RPBM); PBS, 2% BSA, 51.3 ng/ul salmon testes DNA, 50 uM zinc acetate, 200 nM TF, 25 C, 1 h; high values mean tight binding
# Settings: protein: recombinant; tags: N-terminal polyhistidine and DsRed monomer fusion (pET32a); chain copies: 2; label: CyDye5-dUTP incorporated in the synthesized complementary strand; 3' TTTTT single-stranded linker to array surface; dsDNA, one strand shown
# How it was run: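 The binding signal is fluorescence intensity per array feature (arbitrary units). Readings came from an Axon 4000B scanner after a washed, 2% BSA-blocked, double-stranded custom Agilent array had been incubated for 1 h at 25 °C with 200 nM protein and 50 µM zinc acetate. The protein was a Ni–NTA-purified transcription factor fused N-terminally to polyhistidine and DsRed, expressed in E. coli BL21-CodonPlus.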
row,Sequence,binding signal
1,ATTTTATGGAATGTGCCAATGTAGTCGACGCATATGCGTCCGGAGTCACCTAGTGCAG,3380 fluorescence intensity (a.u.)
2,AACTGACGACTTGACAACTCTCATCGGCTAATCTCAGGACCGGAGTCACCTAGTGCAG,3340 fluorescence intensity (a.u.)
3,TGTTGCGCCCTGATTCTGCAGGCACCATGCGAATCGCGGCCGGAGTCACCTAGTGCAG,3770 fluorescence intensity (a.u.)
4,AGATCAGCAAGCGAACTGAATTTAATCAAATGTACTAGTACGGAGTCACCTAGTGCAG,23000 fluorescence intensity (a.u.)
5,ACTATAATTCATGGGATTATGTGCCAGCAGTCATAATATCCGGAGTCACCTAGTGCAG,3180 fluorescence intensity (a.u.)
6,GTGCTACGGATCTTATATCCACGGTAGATTTGATGTATGTCGGAGTCACCTAGTGCAG,3270 fluorescence intensity (a.u.)
7,TCTCCTCCCACTCCCTTGTTCTTGACGAGAAGACGTTCAGCGGAGTCACCTAGTGCAG,3390 fluorescence intensity (a.u.)
8,TCTGGCAAATTTCTCTCCTTCTGATGATTGGTCAGCAGAGCGGAGTCACCTAGTGCAG,3780 fluorescence intensity (a.u.)
9,TCCTCCGTGAATTACACGGTACAGTACCTATATGTGTGTGCGGAGTCACCTAGTGCAG,4190 fluorescence intensity (a.u.)
10,CGCCACCGTCACCGACCGCGCGCGCACGCACGCACACTCCCGGAGTCACCTAGTGCAG,3390 fluorescence intensity (a.u.)
11,TAAAATCGCCGGTAACGTGGCGCACGTCCGGCCGCCTGAACGGAGTCACCTAGTGCAG,4620 fluorescence intensity (a.u.)
12,GAAGAGAGAGAAGAGGGATGAGTGACGATGACAGGTGGGGCGGAGTCACCTAGTGCAG,5720 fluorescence intensity (a.u.)
13,ATACAGGTTACGACGTGTACTACACGTGCACAGTAACGTGCGGAGTCACCTAGTGCAG,7550 fluorescence intensity (a.u.)
14,GCCCCACCCTCCCATTACCCTACCTTTGCAAACGCATCGTCGGAGTCACCTAGTGCAG,3150 fluorescence intensity (a.u.)
15,ATCCGCGCCTCCCCTCTCCTCCTCCGCCGGCTGCTTCCCCCGGAGTCACCTAGTGCAG,3490 fluorescence intensity (a.u.)
16,CGTCGTCGGCACCAGGGCCACGGATTACTTCAGCGACGAGCGGAGTCACCTAGTGCAG,16500 fluorescence intensity (a.u.)
17,AAGTTGTATACATCTTGCACTGTCACTAGATCTACTCATACGGAGTCACCTAGTGCAG,3770 fluorescence intensity (a.u.)
18,AAAATAATGAGTGAATGACAACGTTGTACCGACCGCGCCGCGGAGTCACCTAGTGCAG,3230 fluorescence intensity (a.u.)
19,GCCGCCGCCGCCGCCGCCGCTGACGAGGAGCAGAAGGTGGCGGAGTCACCTAGTGCAG,4310 fluorescence intensity (a.u.)
20,GCGGGCATAGTCCACCCAACCAGCGAGCCATGTGGCCCCACGGAGTCACCTAGTGCAG,3590 fluorescence intensity (a.u.)
21,GCCACGTGGGATGAAGCCTAAGTCAACATCGCCACGTCAGCGGAGTCACCTAGTGCAG,43200 fluorescence intensity (a.u.)

row,Sequence,binding signal
1,TAATTTTAACGTGAGCTGAAGAAGACAGTACCGAAGGATACGGAGTCACCTAGTGCAG,3250 fluorescence intensity (a.u.)
2,TGAGAGTGGTTTAGCGCCTACGTGGCAGTTTGACTTGGTCCGGAGTCACCTAGTGCAG,18500 fluorescence intensity (a.u.)
3,GTTCTACCAGATGAATTTATGATTCTATGAACTAGTAAACCGGAGTCACCTAGTGCAG,27200 fluorescence intensity (a.u.)
4,GCGCGCCGCCATGTCCGCTCCATCCCGGCCGCCACGCCCGCGGAGTCACCTAGTGCAG,4330 fluorescence intensity (a.u.)
5,CCGCTTCATGAGCCGTCGTGGCGTGGATTTGGAAATCCATCGGAGTCACCTAGTGCAG,3940 fluorescence intensity (a.u.)
6,CATGTGATGCGTGTACCAACGACACATCACATACTTTAATCGGAGTCACCTAGTGCAG,5780 fluorescence intensity (a.u.)
7,GTAGGAGGGTGGTTGGTTGTAGAATGGGAAGAAATTTGAACGGAGTCACCTAGTGCAG,3220 fluorescence intensity (a.u.)
8,CAGCCCAGTTAATTTCTGTAGTACCAGACGGGCCATGCGTCGGAGTCACCTAGTGCAG,7670 fluorescence intensity (a.u.)
9,CCTTTGAGGTTGATGTTGACTCAGGTTAGAGTTTAGGGGCCGGAGTCACCTAGTGCAG,4510 fluorescence intensity (a.u.)
10,CGGTCGCCGGAGACAGCAAGTGGAGGCGGGGAAGGAGTCGCGGAGTCACCTAGTGCAG,3610 fluorescence intensity (a.u.)
11,GGCCGGCCAGCGCCATGGCTACCGCCGCCTCGTGCCTCTCCGGAGTCACCTAGTGCAG,3310 fluorescence intensity (a.u.)
12,GGTCACTGTCGAATTCATCACATGCCACACAGGATCTCTGCGGAGTCACCTAGTGCAG,3200 fluorescence intensity (a.u.)
13,CACGACCCGCTTGGACACGTCGTAGCGCGCGTCGATCTCCCGGAGTCACCTAGTGCAG,6350 fluorescence intensity (a.u.)
14,TCAATCCAGTCCATTAGGAACTCCACATATTTTGGCGCTGCGGAGTCACCTAGTGCAG,3960 fluorescence intensity (a.u.)
15,CAAGTCACTTGGTGACATATGCAAACAGCCATGGATTGTACGGAGTCACCTAGTGCAG,4880 fluorescence intensity (a.u.)
16,GCACCGTAAAGCTGCCCTGCTGCTGGCTGCACACGTAATTCGGAGTCACCTAGTGCAG,5600 fluorescence intensity (a.u.)
17,TATGCTTGTCTGATCTATGCAATGACGTACTAGTACGCAACGGAGTCACCTAGTGCAG,3720 fluorescence intensity (a.u.)
18,GCCGTGGGAATGGCTGAGGATTAGTGCGCCACGTCAGCAACGGAGTCACCTAGTGCAG,37300 fluorescence intensity (a.u.)
19,GAGCGCTTTCACCAGCAGCCAGGCGAGCTCGAGCAGCACCCGGAGTCACCTAGTGCAG,21200 fluorescence intensity (a.u.)
20,TGACAATCTGAAGGCAACCTCTTCATATCTTCTTTCCCACCGGAGTCACCTAGTGCAG,3610 fluorescence intensity (a.u.)
21,CCACGATCACATTCACCTCCCATCCCACGACGTTGCTCTCCGGAGTCACCTAGTGCAG,3880 fluorescence intensity (a.u.)

# Shown as tab-separated lines: entries from further up
row	Sequence	binding signal
10	CGGTCGCCGGAGACAGCAAGTGGAGGCGGGGAAGGAGTCGCGGAGTCACCTAGTGCAG	3610 fluorescence intensity (a.u.)
11	GGCCGGCCAGCGCCATGGCTACCGCCGCCTCGTGCCTCTCCGGAGTCACCTAGTGCAG	3310 fluorescence intensity (a.u.)
12	GGTCACTGTCGAATTCATCACATGCCACACAGGATCTCTGCGGAGTCACCTAGTGCAG	3200 fluorescence intensity (a.u.)
13	CACGACCCGCTTGGACACGTCGTAGCGCGCGTCGATCTCCCGGAGTCACCTAGTGCAG	6350 fluorescence intensity (a.u.)
14	TCAATCCAGTCCATTAGGAACTCCACATATTTTGGCGCTGCGGAGTCACCTAGTGCAG	3960 fluorescence intensity (a.u.)
15	CAAGTCACTTGGTGACATATGCAAACAGCCATGGATTGTACGGAGTCACCTAGTGCAG	4880 fluorescence intensity (a.u.)
16	GCACCGTAAAGCTGCCCTGCTGCTGGCTGCACACGTAATTCGGAGTCACCTAGTGCAG	5600 fluorescence intensity (a.u.)
17	TATGCTTGTCTGATCTATGCAATGACGTACTAGTACGCAACGGAGTCACCTAGTGCAG	3720 fluorescence intensity (a.u.)
18	GCCGTGGGAATGGCTGAGGATTAGTGCGCCACGTCAGCAACGGAGTCACCTAGTGCAG	37300 fluorescence intensity (a.u.)
19	GAGCGCTTTCACCAGCAGCCAGGCGAGCTCGAGCAGCACCCGGAGTCACCTAGTGCAG	21200 fluorescence intensity (a.u.)
20	TGACAATCTGAAGGCAACCTCTTCATATCTTCTTTCCCACCGGAGTCACCTAGTGCAG	3610 fluorescence intensity (a.u.)
21	CCACGATCACATTCACCTCCCATCCCACGACGTTGCTCTCCGGAGTCACCTAGTGCAG	3880 fluorescence intensity (a.u.)

# — publication PMC7819943, “Rice protein-binding microarrays: a tool to detect cis-acting elements near promoter regions in rice”
